In article PMC7862700:
The list shows a part of the results, in another mix than the full data. Some of the results follow. For some of these results: The exact form of the protein is not confirmed.

How the values were obtained:
[1] = target: T1, ETS1 (UniProt P14921); experiment: DAPPL (digital affinity profiling via proximity ligation, sequencing); conditions: 10 mM Tris-HCl pH 7.5, 50 mM NaCl, 1 mM DTT, 4% glycerol, room temperature, 30 min; GST-TFs on glutathione beads, 16-mer random dsDNA library, 0.1% …; high values mean tight binding; double strand, one strand shown; scale: fold enrichment (6-mer frequency, TF over GST control)
T1 sequence: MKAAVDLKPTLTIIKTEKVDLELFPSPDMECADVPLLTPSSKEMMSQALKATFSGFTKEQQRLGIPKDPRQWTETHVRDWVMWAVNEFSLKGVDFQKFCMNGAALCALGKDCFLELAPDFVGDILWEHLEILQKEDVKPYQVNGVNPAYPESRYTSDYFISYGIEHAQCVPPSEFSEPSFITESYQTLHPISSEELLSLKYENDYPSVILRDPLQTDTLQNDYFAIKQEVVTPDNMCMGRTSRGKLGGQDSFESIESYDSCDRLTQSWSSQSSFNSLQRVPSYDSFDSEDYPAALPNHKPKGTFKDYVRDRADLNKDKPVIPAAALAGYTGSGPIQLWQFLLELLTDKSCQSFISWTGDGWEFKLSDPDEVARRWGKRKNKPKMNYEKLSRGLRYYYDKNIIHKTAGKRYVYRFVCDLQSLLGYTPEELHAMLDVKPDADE

[2] = target: T2, GABPA (UniProt Q06546); experiment: as above; conditions: 10 mM Tris-HCl pH 7.5, 50 mM NaCl, 1 mM DTT, 4% glycerol, room temperature, 30 min; GST-TFs on glutathione beads, 16-mer random dsDNA library, 0.1% …; high values mean tight binding; double strand, one strand shown; scale: fold enrichment (6-mer frequency, TF over GST control)
T2 sequence: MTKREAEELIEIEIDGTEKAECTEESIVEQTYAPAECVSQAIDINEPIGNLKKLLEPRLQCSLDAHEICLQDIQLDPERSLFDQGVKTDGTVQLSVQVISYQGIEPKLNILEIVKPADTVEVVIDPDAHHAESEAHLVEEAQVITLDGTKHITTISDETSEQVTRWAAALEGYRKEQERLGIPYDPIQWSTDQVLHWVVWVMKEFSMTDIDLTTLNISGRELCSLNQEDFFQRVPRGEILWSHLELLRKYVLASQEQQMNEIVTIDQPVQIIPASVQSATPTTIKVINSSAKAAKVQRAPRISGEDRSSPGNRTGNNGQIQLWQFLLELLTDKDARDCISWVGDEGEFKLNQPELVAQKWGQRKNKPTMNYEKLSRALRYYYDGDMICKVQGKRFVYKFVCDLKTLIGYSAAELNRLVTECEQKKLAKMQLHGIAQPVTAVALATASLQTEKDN

GCATTC
binding signal [1]: 1.14

TTACCG
binding signal [2]: 1.12 | binding signal [1]: 1.22

CTCCTA
binding signal [2]: 1.38 | binding signal [1]: 1.44

TGGTTC
binding signal [2]: 1.35 | binding signal [1]: 1.38
